Taken from: PubChem BioAssay AID1259308 (NCATS, 2017)

Test: 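Knock-downs that increase output of a recombinant reporter protein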 (primary screen)
Cells: human HEK293 embryonic kidney cells stably expressing firefly luciferase (HEK-CMV-Luc2-Hygro)
Reagent: single siRNA against human genes, 0.8 pmol siRNA per well
Duration: 72 h
Read-out: 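Reporter luminescence and viable-cell signal on separate replicate plates, given as percent of non-targeting control and median/MAD z-scores, plus per-cell luciferase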
Direction: total luciferase, z-score and total luciferase, % of control: higher = more reporter protein produced; luciferase per cell, z-score: higher = more reporter output per viable cell
Active means: 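Active when the median/MAD z-score for overall luciferase is greater than 3; a gene was taken forward for validation with new siRNAs if at least two of its three siRNAs passed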
Meaning of the calls: active = raised luciferase; inactive = no rise
Here is an unselected part of about 59,000 reagents tested. About 1,510 of them (2.6%) were called active. 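Calls use total luciferase alone and ignore viability, so some active siRNAs may act by altering cell number.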 The numbers tell different reagents against one gene apart. Further read-outs or replicates are left out here.

target gene | siRNA no. | total luciferase, z-score | total luciferase, % of control | luciferase per cell, z-score | Outcome
ERCC6L | 1 | 0.239 | 86.6 | 0.091 | inactive
ERCC6L | 2 | -0.163 | 78.6 | -0.982 | inactive
ERCC6L | 3 | -0.299 | 75.9 | -0.722 | inactive
TP53I11 | 1 | -0.608 | 69.8 | -0.582 | inactive
TP53I11 | 2 | 1.2 | 106 | 0.879 | inactive
TP53I11 | 3 | 0.596 | 93.7 | -0.31 | inactive
CHST15 | 1 | -0.292 | 76.1 | -0.171 | inactive
CHST15 | 2 | -1.38 | 54.5 | -0.582 | inactive
CHST15 | 3 | 0.105 | 84 | -0.226 | inactive
ATP11C | 1 | 0.401 | 89.9 | 0.962 | inactive
ATP11C | 2 | -0.339 | 75.1 | 0.271 | inactive
ATP11C | 3 | -1.05 | 61 | -1.22 | inactive
GTF3C3 | 1 | 0.216 | 86.2 | 0.585 | inactive
GTF3C3 | 2 | -0.253 | 76.8 | -0.355 | inactive
GTF3C3 | 3 | -0.986 | 62.3 | -0.78 | inactive
NFE2L2 | 1 | 0.508 | 92 | 1.38 | inactive
NFE2L2 | 2 | -0.47 | 72.5 | 0.592 | inactive
NFE2L2 | 3 | -0.906 | 63.9 | -0.148 | inactive
LRFN1 | 1 | 2.51 | 132 | 1.81 | inactive
LRFN1 | 2 | 0.207 | 86 | 0.434 | inactive
LRFN1 | 3 | -0.401 | 73.9 | 0.27 | inactive
SERPINB2 | 1 | -0.466 | 72.6 | -0.501 | inactive
SERPINB2 | 2 | 0.929 | 100 | 0.409 | inactive
SERPINB2 | 3 | -0.836 | 65.3 | 1.03 | inactive
PDHX | 1 | -0.743 | 67.1 | -0.357 | inactive
PDHX | 2 | 1.05 | 103 | 0.492 | inactive
PDHX | 3 | -0.418 | 73.6 | -0.782 | inactive
MUC3A | 1 | -0.536 | 71.2 | 0.0855 | inactive
MUC3A | 2 | 0.967 | 101 | 1.23 | inactive
MUC3A | 3 | 1.18 | 105 | 0.933 | inactive
GDI2 | 1 | 0.21 | 86.1 | -0.294 | inactive
GDI2 | 2 | 0.137 | 84.6 | -0.21 | inactive
GDI2 | 3 | -1.84 | 45.3 | -1.11 | inactive
GALNT15 | 1 | -0.408 | 73.8 | -0.362 | inactive
GALNT15 | 2 | 3.67 | 155 | 2.21 | active
GALNT15 | 3 | 0.364 | 89.1 | -0.06 | inactive
SCCPDH | 1 | 1.06 | 103 | 0.674 | inactive
SCCPDH | 2 | -2.1 | 40.2 | -2.79 | inactive
SCCPDH | 3 | -0.261 | 76.7 | -0.575 | inactive
PTPRR | 1 | 0.584 | 93.5 | 0.38 | inactive
PTPRR | 2 | 0.33 | 88.4 | -0.543 | inactive
PTPRR | 3 | 1.21 | 106 | 0.739 | inactive
OLA1 | 1 | -0.303 | 75.9 | 0.316 | inactive
OLA1 | 2 | -1.1 | 60 | -1.3 | inactive
OLA1 | 3 | 0.439 | 90.6 | -0.206 | inactive
SLFN14 | 1 | 0.297 | 87.8 | 0.689 | inactive
SLFN14 | 2 | 0.158 | 85 | -0.682 | inactive
SLFN14 | 3 | 0.0826 | 83.5 | -0.848 | inactive
NEU1 | 1 | -1.15 | 58.9 | -0.941 | inactive
NEU1 | 2 | 0.749 | 96.8 | -0.162 | inactive
NEU1 | 3 | -0.0456 | 81 | 0.734 | inactive
KRABD3 | 1 | 1.65 | 115 | 1.48 | inactive
KRABD3 | 2 | 0.432 | 90.5 | 0.425 | inactive
KRABD3 | 3 | -0.594 | 70.1 | -0.618 | inactive
SPMIP11 | 1 | 1.67 | 115 | 1.69 | inactive
SPMIP11 | 2 | -0.747 | 67 | 0.856 | inactive
SPMIP11 | 3 | 1.26 | 107 | 1.36 | inactive

5 of these entries, set out differently:
target gene,siRNA no.,"total luciferase, z-score","total luciferase, % of control","luciferase per cell, z-score",Outcome
ERCC6L,3,-0.299,75.9,-0.722,inactive
TP53I11,1,-0.608,69.8,-0.582,inactive
TP53I11,2,1.2,106,0.879,inactive
TP53I11,3,0.596,93.7,-0.31,inactive
CHST15,1,-0.292,76.1,-0.171,inactive
